Substitutions are numbered along the chain they refer to. In names and notes the source's numbering stands.
B1: WT: recombinant wild-type protein Z-dependent protease inhibitor (serpin A10) expressed in Escherichia coli (protein, UniProt Q9UK55 22-444, looked up)
Protein Z-dependent protease …: LAPSPQSPETPAPQNQTSRVVQAPKEEEEDEQEASEEKASEEEKAWLMASRQQLAKETSNFGFSLLRKISMRHDGNMVFSPFGMSLAMTGLMLGATGPTETQIKRGLHLQALKPTKPGLLPSLFKGLRETLSRNLELGLTQGSFAFIHKDFDVKETFFNLSKRYFDTECVPMNFRNASQAKRLMNHYINKETRGKIPKLFDEINPETKLILVDYILFKGKWLTPFDPVFTEVDTFHLDKYKTIKVPMMYGAGKFASTFDKNFRCHVLKLPYQGNATMLVVLMEKMGDHLALEDYLTTDLVETWLRNMKTRNMEVFFPKFKLDQKYEMHELLRQMGIRRIFSPFADLSELSATGRNLQVSRVLQRTVIEVDERGTEAVAGILSEITAYSMPPVIKVDRPFHFMIYEETSGMLLFLGRVVNPTLL
B2: K125A/R128A: ZPI mutant of helix D residues (protein, UniProt Q9UK55 22-444, looked up, variant K125A R128A)
Protein Z-dependent protease …: B1 Protein Z-dependent protease … with K125A, R128A
B3: K104A/R105A/K113A/K116A/K125A/R128A: ZPI mutant of the six basic residues in the helix C/D site (protein, UniProt Q9UK55 22-444, looked up, variant K104A R105A K113A K116A K125A R128A)
Protein Z-dependent protease …: B1 Protein Z-dependent protease … with K104A, R105A, K113A, K116A, K125A, R128A
B4: K260A/R263A/R305A/K308A/R310A: ZPI helix H site quintuple mutant (protein, UniProt Q9UK55 22-444, looked up, variant K260A R263A R305A K308A R310A)
Protein Z-dependent protease …: B1 Protein Z-dependent protease … with K260A, R263A, R305A, K308A, R310A

Assay: Salt gradient elution of ZPI variants from HiTrap heparin column
Assay type: binding
Settings: gradient 0.2 to 0.55 M NaCl, pH 7.4; errors ±0.01 M

| Molecule | NaCl concentration required to elute protein from heparin-Sepharose [M] |
| --- | --- |
| B1 | 0.41 |
| B2 | 0.38 |
| B3 | 0.26 |
| B4 | 0.38 |

Assay: Binding to heparin-Sepharose resin analyzed by SDS-PAGE and immunoblotting
Settings: 500 nM protein alone, 0.1 M NaCl, pH 7.4

| Molecule | binding to heparin-Sepharose |
| --- | --- |
| PZ: human plasma protein Z, cofactor of ZPI, from Enzyme Research Laboratories | does not bind |
| B1 | complete binding |
